The values below come from patent publication US8026368B2, “Hydrazide compounds and thrombopoietin receptor activators” (Nissan Chemical Industries, Ltd., priority 2005, dated 2011).

By UniProt entry, the sequences of proteins in these tests, tags left out. Residues count along the entry.
UniProt P40238, 26-635 limits assumed: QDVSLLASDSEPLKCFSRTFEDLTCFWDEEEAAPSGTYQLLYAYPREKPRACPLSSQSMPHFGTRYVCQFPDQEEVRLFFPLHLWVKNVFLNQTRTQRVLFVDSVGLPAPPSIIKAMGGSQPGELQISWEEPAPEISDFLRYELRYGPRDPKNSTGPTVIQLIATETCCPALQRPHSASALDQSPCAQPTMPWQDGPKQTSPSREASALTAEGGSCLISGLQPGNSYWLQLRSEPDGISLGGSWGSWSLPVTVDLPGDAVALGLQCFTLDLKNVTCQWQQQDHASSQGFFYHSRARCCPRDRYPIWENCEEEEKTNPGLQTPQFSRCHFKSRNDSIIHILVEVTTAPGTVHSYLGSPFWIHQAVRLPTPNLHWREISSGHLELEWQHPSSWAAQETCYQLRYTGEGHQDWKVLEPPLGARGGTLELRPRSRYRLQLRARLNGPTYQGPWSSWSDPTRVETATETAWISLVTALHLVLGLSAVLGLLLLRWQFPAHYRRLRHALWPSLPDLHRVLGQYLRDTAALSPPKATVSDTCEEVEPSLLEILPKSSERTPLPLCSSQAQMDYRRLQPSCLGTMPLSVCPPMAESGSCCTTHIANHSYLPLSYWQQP

Molecules are shown by their SMILES. The match of structure and compound is tentative.

This test addresses human thrombopoietin receptor (c-mpl) (Homo sapiens, UniProt P40238). The experiment in a line: Stimulation of proliferation of thrombopoietin-dependent cell line UT7/EPO-mpl (WST-8). Conditions: human leukemic cell line UT-7/EPO-mpl, 4 days incubation, WST-8, relative to 10 ng/mL TPO. The procedure: The responses of thrombopoietin receptor to the compounds of the present invention prepared in the Synthetic Examples were assayed using a human leukemic cell line, UT7/EPO-mpl.
UT7/EPO-mpl is a stable transformed cell line obtained by introducing into human leukemic cell line UT7/EPO a vector that induces expression of human thrombopoietin receptor (c-mpl) under control of cytomegalovirus immediate-early promoter by the method of Takatoku et al. (J. Biol. Chem., 272:7259-7263 (1997)). […] These two cell lines were subcultured in IMDM (GIBCO) containing 10% fetal bovine serum (Thermo Electron or BioWest) using a CO2 incubator (5% CO2, 37° C.).
The subcultured cells described above were washed twice with PBS and suspended in IMDM containing 10% fetal bovine serum at a cell density of 6×10^4 cells/ml. The cell suspension was transferred to a 96-well tissue culture plate (CORNING) in 100-μl aliquots. Then either thrombopoietin (Pepro Tech EC) or the compounds of the Synthetic Examples dissolved in dimethyl sulfoxide were diluted 83-fold with IMDM containing 10% fetal bovine serum and added to the aforementioned cell suspension in 20-μl aliquots. The cell suspension was incubated in a CO2 incubator (5% CO2, 37° C.) for 4 days. […] The formazan pigment generated was detected by measuring the absorbance at 450 nm with a 96-well microplate reader (Nihon Molecular Devices, Spectramax 190). […]

In the case of `CC1=NN(c2ccc(C)c(C)c2)C(=O)/C1=C(/C)NNC(=O)c1ccc(C(=O)N2CCC(N3CCCC3)CC2)s1`, the “EC50 (concentration that yields a growth rate corresponding to 50% of the growth observed in the presence of 10 ng/mL TPO)” value is recorded as 3.2 ng/mL.
